{
  "sequences": {"note": "Chains of the proteins cited; added tags and fusions are not shown. Residues count along the entry.", "UniProt P02769, 25-607": "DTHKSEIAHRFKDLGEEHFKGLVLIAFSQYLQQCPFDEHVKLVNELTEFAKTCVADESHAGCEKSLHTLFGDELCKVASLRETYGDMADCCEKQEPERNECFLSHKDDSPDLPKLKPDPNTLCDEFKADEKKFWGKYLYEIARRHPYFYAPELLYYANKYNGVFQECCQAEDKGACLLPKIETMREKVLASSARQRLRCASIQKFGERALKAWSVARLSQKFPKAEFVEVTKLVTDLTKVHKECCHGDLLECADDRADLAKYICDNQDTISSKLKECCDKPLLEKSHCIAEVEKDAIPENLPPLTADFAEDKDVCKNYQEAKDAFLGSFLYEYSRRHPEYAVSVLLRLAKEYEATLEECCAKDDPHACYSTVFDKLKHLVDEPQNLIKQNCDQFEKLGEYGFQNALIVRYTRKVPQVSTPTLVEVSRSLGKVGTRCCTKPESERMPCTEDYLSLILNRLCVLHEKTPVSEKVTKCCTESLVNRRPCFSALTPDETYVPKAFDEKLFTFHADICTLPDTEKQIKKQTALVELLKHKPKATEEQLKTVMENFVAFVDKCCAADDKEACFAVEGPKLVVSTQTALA"},
  "source": "paper PMC11534217",
  "key": {"[1]": {"molecular_target": "BSA (bovine serum albumin) (UniProt P02769)", "test": "EMSA", "conditions": "50 mg/ml BSA alone, 100 nM Cy5-HSE; EMSA: 200 nM HSF1, 100 nM DNA, 25 mM HEPES pH 7.4, 150 mM NaCl, 10% glycerol, 3 mM beta-mercaptoethanol, 38-40 C or ice, then ice 30 min, 1% agarose TBE 4 C; commercial protein; label: 5' Cy5 on printed strand"}, "[2]": {"molecular_target": "T1, HSF1 trimer (SEC-purified) (human (Homo sapiens)) (UniProt Q00613)", "T1 sequence (looked up)": "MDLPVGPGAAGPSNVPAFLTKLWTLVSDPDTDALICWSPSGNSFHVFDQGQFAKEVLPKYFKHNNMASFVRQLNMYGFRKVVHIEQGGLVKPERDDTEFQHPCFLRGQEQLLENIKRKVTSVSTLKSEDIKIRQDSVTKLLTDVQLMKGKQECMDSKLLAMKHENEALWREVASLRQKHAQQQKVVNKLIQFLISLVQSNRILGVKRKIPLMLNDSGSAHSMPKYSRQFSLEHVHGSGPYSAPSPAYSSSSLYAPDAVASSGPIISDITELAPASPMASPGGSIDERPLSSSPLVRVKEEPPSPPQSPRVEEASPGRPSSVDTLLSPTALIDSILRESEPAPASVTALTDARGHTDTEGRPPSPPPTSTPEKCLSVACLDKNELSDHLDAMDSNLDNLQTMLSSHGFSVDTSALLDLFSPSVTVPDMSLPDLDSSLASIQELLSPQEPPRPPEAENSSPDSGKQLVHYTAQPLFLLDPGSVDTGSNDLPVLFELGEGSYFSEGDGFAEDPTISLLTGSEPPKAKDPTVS", "test": "fluorescence polarization", "conditions": "Kd fitted but value not in the material, FP: 30 nM DNA, 150 mM NaCl, 50 mM HEPES pH 7.2, 1 mM DTT, 0.05% Tween-20, 25 C, recombinant protein, residues 1-529, protein details: N-terminal His6-TEV, cleaved by TEV before assay, label: 5' FAM on printed strand"}},
  "note": "Construct, isoform or probe ends are uncertain for at least one entry. For some assays here: No signal at the amounts used counts as a negative. For some assays here: At least one verdict rests on a figure or table, not on a statement of the authors. For some assays here: Tags and fusion partners may be left off the protein sequences shown.",
  "data": [
    {"sequence": "CCCCTTCCCGAATATTCCCCC (double strand) [Cy5-HSE]", "values": [
      {"measurement": "binding result", "setting": "[1]", "result": "no binding"}
    ]},
    {"sequence": "CCCCTTCCCGAATATTCCCCC (double strand) [FAM-HSE]", "values": [
      {"measurement": "binding result", "setting": "[2]", "result": "binds"}
    ]}
  ]
}
